This is an account of results in paper doi:10.1101/2020.05.18.101634.

Results are given in words; binding and its absence hold for the method and conditions named. In cells and extracts the contact can be indirect. Binding calls can cover weak binding; strength is not graded here. Tags and fused reporters may be left off the sequences shown.

Experiment [1] has as its target T1, FliM-FLAG (Borrelia burgdorferi) (UniProt Q57511).
T1 sequence: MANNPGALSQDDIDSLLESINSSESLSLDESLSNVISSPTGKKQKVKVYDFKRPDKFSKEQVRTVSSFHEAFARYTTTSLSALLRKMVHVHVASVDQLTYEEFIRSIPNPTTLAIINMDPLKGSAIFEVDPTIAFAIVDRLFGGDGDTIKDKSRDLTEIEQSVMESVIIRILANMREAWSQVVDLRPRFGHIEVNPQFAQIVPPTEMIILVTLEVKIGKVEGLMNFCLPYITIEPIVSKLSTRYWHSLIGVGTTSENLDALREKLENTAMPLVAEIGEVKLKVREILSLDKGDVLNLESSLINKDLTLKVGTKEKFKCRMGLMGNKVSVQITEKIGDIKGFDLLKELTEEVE
The experiment is described as follows: pull-down.

Experiment [2] has as its target His-CheY3 (without acetyl phosphate) (Borrelia burgdorferi). The experiment is described as follows: pull-down.

With “His-CheY3 (without acetyl phosphate) (Borrelia burgdorferi)”, in experiment [1], the binding result was “binds”.

B1: FliM-FLAG (protein, UniProt Q57511 1-352)
chain: T1 sequence
Consider B1, for which the binding result in experiment [2] is “binds weakly”.
